US7524811B2, “Anti-angiogenic peptides from the N-terminus of endostatin” (Children's Medical Center Corporation, priority 2003, dated 2009)
At least one peptide structure holds a part that was inferred or is arguable (an end, a ring closure or a residue). No end group written: not given here.

Experiments:
[1] = tested on: human pancreatic tumor cells BxPC-3; assay: BxPC-3 tumor model, systemic s.c. treatment; type: in vivo, SCID mice; conditions: peptide s.c. twice a day, 7 mg/kg/d; final measurement at 28 days; n=3; vs PBS
Description: These peptides were initially tested for anti-tumor activity employing the human pancreatic tumor cells BxPC-3 cells, which were implanted in the s.c. dorsa of SCID mice. For systemic treatment, human endostatin peptides, P1-P8, were administered subcutaneously (s.c.) twice a day at 7 mg/kg/d due to the high clearance rate from the mouse circulation. Full-length Fc-Endostatin, hFcES was administered subcutaneously only once per day at a dose of 20 mg/kg/d. PBS was used as a control.
Human BxPC-3 pancreatic adenocarcinoma and Lewis lung carcinoma (LLC) cells were grown and maintained as described earlier (Kisker et al. (2001) Cancer Res, 61:7669-7674; O'Reilly et al. (1994) Cell, 79: 315-328). For BxPC-3 tumor cell injection, cells were grown in 900-cm2 roller bottles. Human microvascular endothelial cells (HMVEC-d; Clonetics, Walkersville, Md.) were cultured in microvascular endothelial cell growth medium (EGM-2 MV; Clonetics) and maintained at 5% CO2 in a 37° C. humidified incubator. […]
The mice were weighed and tumors were measured every 3-5 days in two diameters with a dial-caliper. Volumes were determined using the formula a^2×b×0.52 (where a is the shortest and b is the longest diameter). […]

[2] = tested on: human microvascular endothelial cells (HMVECs); assay: VEGF-induced endothelial cell migration, modified Boyden chamber; type: cell-based; conditions: VEGF 5 ng/ml; several doses
Description: Endostatin peptides were tested for anti-endothelial cell migration activity. Inhibition of VEGF-induced migration of human microvascular endothelial cells (HMVECs) was determined using several doses of endostatin peptides (FIG. 5). Human peptides were used because the cells were of human origin and the migration response of the HMVECs was assayed using a modified Boyden chamber. VEGF (5 ng/ml) was used a chemotactic agent and cells were challenged with human endostatin (Entremed; EM-ES), human Fc-Endostatin (nFcES), human P1 (hP1), human P2 (hP2), human P6 (hP6), and human P1-H1/3A (hP1-H1/3A). Total migration per membrane was quantified from the capture images using Scion Image Software (National Institutes of Health) and the unpaired Student T test was used for statistical analysis.
The motility response of HMVEC-d cells was assayed using a modified Boyden chamber. Cells were plated in T75-cm2 flasks at 0.5×10^6 cells per flask and allowed to grow for 48 h (˜70% confluent) prior to the migration assay. […] The number of migrated cells was measured using microscopy (three fields from each membrane were captured using a 40x objective), and images were captured with a CCD camera using SPOT software. Total migration per membrane was quantified from the captured images using Scion Image software (National Institutes of Health). […]

## MRGIRGADFQAFQQARAVGLAGTFR [hP2]
[1]
  inhibition of BxPC-3 tumor: 19%
[2]
  inhibition of EC migration: no effect at all
